Experimental data taken from patent publication US10328128B2, “Treatment of infection by human enterovirus D68” (priority 2014, dated 2019).
At least one read-out could not be matched to a standard name with certainty.

Tested on: enterovirus D68 strains (EV-D68)
Experiment: DAS181 specific anti-viral assay, text summary over all strains and conditions
Type: cell-based, Human enterovirus D68
Details: 24 h preincubation, simultaneous, 4 h post-infection
Method: As shown in the Table 2, DAS181 was tested to assess antiviral activity of the compound using a cell-based assay, and using enterovirus D68 strains (EV-D68). In this assay, using four specific EV-D68 strains, the compound was added at different time-points to each of the strains. The three time conditions tested were: (i) DAS181 preincubated with cells for 24 h before virus infection; (ii) DAS181 added simultaneously with virus; and (iii) DAS181 added 4 h post-infection. Fermon, an original prototypic strain, was used as control.

B1: DAS181: fusion protein of the catalytic domain of A. viscosus sialidase and a human amphiregulin GAG-binding anchoring domain (SEQ ID NOs: 15 and 16) (protein)
chain: MGDHPQATPAPAPDASTELPASMSQAQHLAANTATDNYRIPAITTAPNGDLLISYDERPKDNGNGGSDAPNPNHIVQRRSTDGGKTWSAPTYIHQGTETGKKVGYSDPSYVVDHQTGTIFNFHVKSYDQGWGGSRGGTDPENRGIIQAEVSTSTDNGWTWTHRTITADITKDKPWTARFAASGQGIQIQHGPHAGRLVQQYTIRTAGGAVQAVSVYSDDHGKTWQAGTPIGTGMDENKVVELSDGSLMLNSRASDGSGFRKVAHSTDGGQTWSEPVSDKNLPDSVDNAQIIRAFPNAAPDDPRAKVLLLSHSPNPRPWSRDRGTISMSCDDGASWTTSKVFHEPFVGYTTIAVQSDGSIGLLSEDAHNGADYGGIWYRNFTMNWLGEQCGQKPAKRKKKGGKNGKNRRNRKKKNPGDHPQATPAPAPDASTELPASMSQAQHLAANTATDNYRIPAITTAPNGDLLISYDERPKDNGNGGSDAPNPNHIVQRRSTDGGKTWSAPTYIHQGTETGKKVGYSDPSYVVDHQTGTIFNFHVKSYDQGWGGSRGGTDPENRGIIQAEVSTSTDNGWTWTHRTITADITKDKPWTARFAASGQGIQIQHGPHAGRLVQQYTIRTAGGAVQAVSVYSDDHGKTWQAGTPIGTGMDENKVVELSDGSLMLNSRASDGSGFRKVAHSTDGGQTWSEPVSDKNLPDSVDNAQIIRAFPNAAPDDPRAKVLLLSHSPNPRPWSRDRGTISMSCDDGASWTTSKVFHEPFVGYTTIAVQSDGSIGLLSEDAHNGADYGGIWYRNFTMNWLGEQCGQKPAKRKKKGGKNGKNRRNRKKKNP
  effect of time of addition on the EC50: no effect
